Paper PMC4479417
No constants are given. Whether binding was seen depends on the method and setting. In cells and extracts the contact can be indirect. Some results given as binding are weak or reduced against the parent protein; the word gives no strength. Sequences can lack the tags named with a protein. Values belong to the molecule of their own block, whether it stands above or below them.

The chains behind the UniProt entries cited, without tags or fusion partners.
UniProt Q99570: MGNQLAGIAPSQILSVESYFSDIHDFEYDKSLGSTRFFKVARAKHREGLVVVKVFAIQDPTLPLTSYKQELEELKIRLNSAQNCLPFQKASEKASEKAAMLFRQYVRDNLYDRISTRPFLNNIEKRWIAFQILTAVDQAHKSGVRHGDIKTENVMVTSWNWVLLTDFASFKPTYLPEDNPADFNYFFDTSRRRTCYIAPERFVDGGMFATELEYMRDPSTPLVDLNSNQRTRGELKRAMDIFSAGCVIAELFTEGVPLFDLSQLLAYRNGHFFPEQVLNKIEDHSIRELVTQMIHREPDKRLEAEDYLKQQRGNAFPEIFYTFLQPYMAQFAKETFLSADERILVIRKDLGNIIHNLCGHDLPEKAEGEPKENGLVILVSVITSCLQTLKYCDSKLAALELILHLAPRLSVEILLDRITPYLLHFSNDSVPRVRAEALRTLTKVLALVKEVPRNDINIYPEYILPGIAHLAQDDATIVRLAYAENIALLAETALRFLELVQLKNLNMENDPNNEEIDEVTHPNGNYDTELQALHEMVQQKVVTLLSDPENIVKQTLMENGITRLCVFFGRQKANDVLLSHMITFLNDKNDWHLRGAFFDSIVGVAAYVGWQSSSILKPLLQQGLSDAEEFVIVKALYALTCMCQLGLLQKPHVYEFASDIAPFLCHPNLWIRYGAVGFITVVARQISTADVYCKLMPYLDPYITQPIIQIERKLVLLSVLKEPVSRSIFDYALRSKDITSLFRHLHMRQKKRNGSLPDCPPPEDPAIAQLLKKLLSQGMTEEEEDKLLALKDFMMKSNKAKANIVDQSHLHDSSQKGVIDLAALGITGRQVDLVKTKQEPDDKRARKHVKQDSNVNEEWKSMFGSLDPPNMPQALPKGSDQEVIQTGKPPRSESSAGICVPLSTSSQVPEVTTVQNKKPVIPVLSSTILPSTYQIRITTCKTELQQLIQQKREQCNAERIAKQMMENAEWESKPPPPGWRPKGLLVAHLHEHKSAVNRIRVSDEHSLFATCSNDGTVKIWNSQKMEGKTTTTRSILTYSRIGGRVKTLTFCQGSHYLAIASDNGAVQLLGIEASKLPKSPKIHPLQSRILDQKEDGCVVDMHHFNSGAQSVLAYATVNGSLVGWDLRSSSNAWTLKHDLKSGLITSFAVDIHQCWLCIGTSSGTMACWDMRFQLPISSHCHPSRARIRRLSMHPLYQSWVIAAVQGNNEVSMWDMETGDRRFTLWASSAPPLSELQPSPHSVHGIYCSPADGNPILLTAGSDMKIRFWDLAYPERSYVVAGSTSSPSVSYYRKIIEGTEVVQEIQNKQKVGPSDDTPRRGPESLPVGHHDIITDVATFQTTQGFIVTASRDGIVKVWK

Experiments:
[1] = molecular target: T1, GST-Rab5A (Canis lupus) (Canis lupus) (UniProt P18066); assay: pull-down; GST-Rab5A on glutathione beads loaded with GTPγS; incubated with [35S]-labelled in vitro translated protein at 4 °C for 2 h; six washes with 20 mM Tris pH 7.4, 25 mM NaCl, 5 mM MgCl2, 0.1% NP-40, 1 mM dithiothreitol, 10 μM GTPγS; SDS-PAGE and autoradiography; only the target purified
T1 sequence: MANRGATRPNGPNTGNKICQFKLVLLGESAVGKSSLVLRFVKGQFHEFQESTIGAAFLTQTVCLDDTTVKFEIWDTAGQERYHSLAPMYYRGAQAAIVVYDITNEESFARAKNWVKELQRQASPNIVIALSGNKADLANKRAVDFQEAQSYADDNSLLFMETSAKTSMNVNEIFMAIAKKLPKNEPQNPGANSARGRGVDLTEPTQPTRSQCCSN

[2] = molecular target: T1, GST-Rab5A (Canis lupus) (Canis lupus); assay: pull-down; GST-Rab5A on glutathione beads loaded with GDP; incubated with [35S]-labelled in vitro translated protein at 4 °C for 2 h; six washes with 20 mM Tris pH 7.4, 25 mM NaCl, 5 mM MgCl2, 0.1% NP-40, 1 mM dithiothreitol, 10 μM GDP; SDS-PAGE and autoradiography; only the target purified

- binding [1]: binds
Molecule: Vps15, [35S]-labelled, in vitro translated (from UniProt Q99570 1-1358)

- binding [2]: binds
- binding [1]: binds
B1: PI3K-C2γ, [35S]-labelled, in vitro translated (enzyme, UniProt O75747 1-1486)
chain: MAYSWQTDPNPNESHEKQYEHQEFLFVNQPHSSSQVSLGFDQIVDEISGKIPHYESEIDENTFFVPTAPKWDSTGHSLNEAHQISLNEFTSKSRELSWHQVSKAPAIGFSPSVLPKPQNTNKECSWGSPIGKHHGADDSRFSILAPSFTSLDKINLEKELENENHNYHIGFESSIPPTNSSFSSDFMPKEENKRSGHVNIVEPSLMLLKGSLQPGMWESTWQKNIESIGCSIQLVEVPQSSNTSLASFCNKVKKIRERYHAADVNFNSGKIWSTTTAFPYQLFSKTKFNIHIFIDNSTQPLHFMPCANYLVKDLIAEILHFCTNDQLLPKDHILSVCGSEEFLQNDHCLGSHKMFQKDKSVIQLHLQKSREAPGKLSRKHEEDHSQFYLNQLLEFMHIWKVSRQCLLTLIRKYDFHLKYLLKTQENVYNIIEEVKKICSVLGCVETKQITDAVNELSLILQRKGENFYQSSETSAKGLIEKVTTELSTSIYQLINVYCNSFYADFQPVNVPRCTSYLNPGLPSHLSFTVYAAHNIPETWVHSYKAFSFTCWLTYAGKKLCQVRNYRNIPDKKLFFFLVNWNETINFPLEIKSLPRESMLTVKLFGIACATNNANLLAWTCLPLFPKEKSILGSMLFSMTLQSEPPVEMITPGVWDVSQPSPVTLQIDFPATGWEYMKPDSEENRSNLEEPLKECIKHIARLSQKQTPLLLSEEKKRYLWFYRFYCNNENCSLPLVLGSAPGWDERTVSEMHTILRRWTFSQPLEALGLLTSSFPDQEIRKVAVQQLDNLLNDELLEYLPQLVQAVKFEWNLESPLVQLLLHRSLQSIQVAHRLYWLLKNAENEAYFKSWYQKLLAALQFCAGKALNDEFSKEQKLIKILGDIGERVKSASDHQRQEVLKKEIGRLEEFFQDVNTCHLPLNPALCIKGIDHDACSYFTSNALPLKITFINANPMGKNISIIFKAGDDLRQDMLVLQLIQVMDNIWLQEGLDMQMIIYRCLSTGKDQGLVQMVPDAVTLAKIHRHSGLIGPLKENTIKKWFSQHNHLKADYEKALRNFFYSCAGWCVVTFILGVCDRHNDNIMLTKSGHMFHIDFGKFLGHAQTFGGIKRDRAPFIFTSEMEYFITEGGKNPQHFQDFVELCCRAYNIIRKHSQLLLNLLEMMLYAGLPELSGIQDLKYVYNNLRPQDTDLEATSHFTKKIKESLECFPVKLNNLIHTLAQMSAISPAKSTSQTFPQESCLLSTTRSIERATILGFSKKSSNLYLIQVTHSNNETSLTEKSFEQFSKLHSQLQKQFASLTLPEFPHWWHLPFTNSDHRRFRDLNHYMEQILNVSHEVTNSDCVLSFFLSEAVQQTVEESSPVYLGEKFPDKKPKVQLVISYEDVKLTILVKHMKNIHLPDGSAPSAHVEFYLLPYPSEVRRRKTKSVPKCTDPTYNEIVVYDEVTELQGHVLMLIVKSKTVFVGAINIRLCSVPLDKEKWYPLGNSII
modifications: [35S]-labelled (Expre35S35S [35S]-Protein Labeling Mix)
